Laboratory results reported in patent US20130004979A1, “GLYCOSYLTRANSFERASE REVERSIBILITY FOR SUGAR NUCLEOTIDE SYNTHESIS AND MICROSCALE SCANNING” (WISCONSIN ALUMNI RESEARCH FOUNDATION, priority 2010, published 2013).
Some of these results come from one statement about several compounds together. For part of these data: At least one structure is not confirmed: it was looked up by name or label, or the drawing left a doubt.

Protein sequences, listed by entry. Tags and fused reporters are not part of them. Chains listed by the source or under a name are the forms on record and can include a tag or linker.
UniProt Q53685, other isoform, or with tags, fused parts or gaps P55A/P67T/R82V/R83E/T84P/S132F/A242L/Q268V: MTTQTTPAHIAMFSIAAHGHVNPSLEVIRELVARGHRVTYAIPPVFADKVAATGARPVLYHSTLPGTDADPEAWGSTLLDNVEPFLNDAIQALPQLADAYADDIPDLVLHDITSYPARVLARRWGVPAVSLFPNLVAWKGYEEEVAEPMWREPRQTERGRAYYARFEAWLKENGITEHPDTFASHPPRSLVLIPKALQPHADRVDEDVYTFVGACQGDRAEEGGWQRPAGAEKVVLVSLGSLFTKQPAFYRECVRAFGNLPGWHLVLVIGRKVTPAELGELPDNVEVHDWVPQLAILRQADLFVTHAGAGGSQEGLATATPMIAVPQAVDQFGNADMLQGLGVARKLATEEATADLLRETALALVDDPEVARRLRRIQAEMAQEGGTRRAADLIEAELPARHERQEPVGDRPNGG

Tests used:
[1] = target: OleD variant P67T/S312F/A242L/Q268V (Streptomyces antibioticus, UniProt Q53685, A242L/P67T/Q268V/S132F); test: Determination of equilibrium constants of the glucoside donor/UDP reaction; type: biochemical; conditions: 21 μM enzyme, 1 mM UDP, 1 mM donor, pH 8.5
Description: Equilibrium constants (Keq, pH8.5) were also determined for 1, 2, 4, 7, and 9 and utilized to calculate the corresponding Gibbs free energy according to equation (1).
ΔG°pH8.5=−RT ln(Keq,pH8.5)
Reactions contained 21 μM (200 μg) OleD variant P67T/S312F/A242L/Q268V, 1 mM UDP, and 1 mM β-D-glucopyranoside donor (1, 2, 4, 7, or 9) in Tris-HCl buffer (50 mM, pH 8.5) in a final total volume of 200 μl. Multiple time course evaluations were conducted to determine the time at which each reaction reached equilibrium (<2 min for 7, 9; <90 min for 1, 4; 200 min for 2). Following, each analysis was conducted in triplicate to the minimum observed time point for equilibrium and samples were processed and evaluated as described below to determine concentrations of UDP to 33a (UDP-α-D-glucose). […] Glucoside and aglycon concentrations were inferred from the determined concentrations of UDP and 33a.

OleD variant TDP-16 = OleD variant TDP-16 (Streptomyces antibioticus, UniProt Q53685, A242L/P67T/Q268V/S132F); test: 2-chloro-4-nitrophenyl glycoside screening for NDP-sugar formation; type: biochemical; conditions: for formation of desired sugar nucleotide with both UDP and TDP: TDP-16; for percent conversion with UDP: standard conditions: 1 mM UDP, 1 mM donor, 7 μM TDP-16, maximum within 21 hour

SMILES	formation of desired sugar nucleotide with both UDP and TDP (OleD variant TDP-16)	further results
OCC1O[C@@H](Oc2ccccc2Cl)C(O)[C@@H](O)[C@@H]1O (stereo partly drawn) [Compound 4, 2-chlorophenyl-β-D-glucopyranoside]	–	time at which reaction reached equilibrium [1]: < 90 min
O=[N+]([O-])c1ccc(O[C@@H]2OC(CO)[C@@H](O)[C@H](O)C2O)c(Cl)c1 (stereo partly drawn) [Compound 9, 2-chloro-4-nitrophenyl-β-D-glucopyranoside]	–	time at which reaction reached equilibrium [1]: < 2 min
O=[N+]([O-])c1ccc(O[C@@H]2O[C@H](CF)[C@@H](O)[C@H](O)[C@H]2O)c(Cl)c1 [Compound 34, (2-chloro-4-nitrophenyl)-6-deoxy-6-fluoro-3-D-glucopyranoside]	resulted in the formation of the desired sugar nucleotide	–
O=[N+]([O-])c1ccc(O[C@@H]2O[C@H](CBr)[C@@H](O)[C@H](O)[C@H]2O)c(Cl)c1 [Compound 35, (2-chloro-4-nitrophenyl)-6-bromo-6-deoxy-3-D-glucopyranose]	resulted in the formation of the desired sugar nucleotide	–
O=[N+]([O-])c1ccc(O[C@@H]2OC(CS)[C@@H](O)[C@H](O)C2O)c(Cl)c1 (stereo partly drawn) [Compound 36, (2-chloro-4-nitrophenyl)-6-deoxy-6-thio-β-D-glucopyranoside]	resulted in the formation of the desired sugar nucleotide	–
[N-]=[N+]=NC[C@H]1O[C@@H](Oc2ccc([N+](=O)[O-])cc2Cl)[C@H](O)[C@@H](O)[C@@H]1O [Compound 37, (2-chloro-4-nitrophenyl)-6-azido-6-deoxy-β-D-glucopyranoside]	resulted in the formation of the desired sugar nucleotide	–
O=[N+]([O-])c1ccc(O[C@@H]2OC[C@@H](O)[C@H](O)C2O)c(Cl)c1 (stereo partly drawn) [Compound 38, 2-chloro-4-nitrophenyl-β-D-xylopyranoside]	resulted in the formation of the desired sugar nucleotide	–
O=[N+]([O-])c1ccc(O[C@H]2C[C@@H](O)[C@H](O)C(CO)O2)c(Cl)c1 (stereo partly drawn) [Compound 39, (2-chloro-4-nitrophenyl)-2-deoxy-β-D-glucopyranoside]	resulted in the formation of the desired sugar nucleotide	–
O=[N+]([O-])c1ccc(O[C@@H]2OC(CO)[C@@H](O)CC2O)c(Cl)c1 (stereo partly drawn) [Compound 40, (2-chloro-4-nitrophenyl)-3-deoxy-β-D-glucopyranoside]	resulted in the formation of the desired sugar nucleotide	–
O=[N+]([O-])c1ccc(O[C@@H]2O[C@H](CO)C[C@H](O)[C@H]2O)c(Cl)c1 [Compound 41, (2-chloro-4-nitrophenyl)-4-deoxy-β-D-glucopyranoside]	resulted in the formation of the desired sugar nucleotide	yields of TDP-sugars (54b, 55b, 57b) (OleD variant TDP-16; ratio 1:10 of TDP to glycoside donor): < 25%; yields of UDP-sugars (54a, 55a, 57a) (OleD variant TDP-16; ratio 1:10 of UDP to glycoside donor): > 85%; percent conversion with UDP (OleD variant TDP-16): < 45%
CC1O[C@@H](Oc2ccc([N+](=O)[O-])cc2Cl)C(O)[C@@H](O)[C@@H]1O (stereo partly drawn) [Compound 42, (2-chloro-4-nitrophenyl)-6-deoxy-β-D-glucopyranoside]	resulted in the formation of the desired sugar nucleotide	–
C[C@@H]1O[C@H](Oc2ccc([N+](=O)[O-])cc2Cl)[C@H](O)[C@H](O)[C@H]1O [Compound 47, 2-chloro-4-nitrophenyl-β-L-rhamnopyranoside]	–	percent conversion with UDP (OleD variant TDP-16): < 45%
